Measured values as given in the supplement of paper PMC12872613.
Structures can show the parent of a compound that is named as a salt. This is one part of the list. Rule as the data show it: active = 0.7 or more and inactive = the rest. Most values come without repeats; read them as rough.

System: MiaPaCa-2 CLSA-25
Test: cell death relative to DMSO vehicle (fraction); higher = more cytotoxic
Settings: 5 µM; treatment time 48 h; medium cystine 25 µM

SMILES | cell death
CC(C)NCC(O)c1ccc(O)c(O)c1 (centres undefined) [Isoprenaline hydrochloride] | inactive: 0.368
Cc1ccccc1N=Nc1ccc(NC(=O)c2ccnn2C)c(C)c1 | inactive: 0.0118
O=C(CCNNC(=O)c1ccncc1)NCc1ccccc1 [Nialamide] | inactive: 0.263
O=C(CCc1ccc(O)cc1)c1c(O)cc(O)cc1O[C@@H]1O[C@H](CO)[C@@H](O)[C@H](O)[C@H]1O [Phlorizin] | inactive: 0.00856
CC1=CC(=O)c2ccccc2C1=O [Menadione] | inactive: 0.0204
NS(=O)(=O)c1ccc(S(=O)(=O)Nc2cccc3c(Cl)c[nH]c23)cc1 [Indisulam] | inactive: 0.0136
O=c1[nH]cnc2c1ncn2[C@@H]1O[C@H](CO)[C@@H](O)[C@H]1O [Inosine] | inactive: -0.00107
NC(=O)CCCCC1CCSS1 (centres undefined) [Thioctamide] | inactive: -0.00963
CCC[C@H](NC(=O)[C@@H]1[C@H]2CCC[C@H]2CN1C(=O)[C@@H](NC(=O)[C@@H](NC(=O)c1cnccn1)C1CCCCC1)C(C)(C)C)C(=O)C(=O)NC1CC1 [Telaprevir] | inactive: 0.593
CC1=C(/C=C/C(C)=C/C=C/C(C)=C/C(=O)O)C(C)(C)CCC1 [Tretinoin] | inactive: 0.499
O=C(OC(C(F)(F)F)C(F)(F)F)N1CCC(C(O)(c2ccc3c(c2)OCO3)c2ccc3c(c2)OCO3)CC1 | inactive: 0.107
C[C@H](CCC(=O)O)[C@H]1CC[C@H]2[C@@H]3[C@H](O)C[C@@H]4C[C@H](O)CC[C@]4(C)[C@H]3CC[C@]12C [Chenodeoxycholic acid] | inactive: 0.0468
NC(=O)NCCC(=O)O [3-Ureidopropionic acid] | inactive: 0.383
O=C1NCC2(CCN(CCc3ccccc3)CC2)O1 [Fenspiride hydrochloride] | inactive: -0.0367

By substructure, those above with an NH in an aromatic ring
SMILES | cell death
NS(=O)(=O)c1ccc(S(=O)(=O)Nc2cccc3c(Cl)c[nH]c23)cc1 [Indisulam] | inactive: 0.0136
O=c1[nH]cnc2c1ncn2[C@@H]1O[C@H](CO)[C@@H](O)[C@H]1O [Inosine] | inactive: -0.00107
